Paper PMC9483092
These are yes or no findings as the source states them, for the method shown. Binding seen in cells or lysates may run through a third protein. Some entries that bind do so weakly or less than the wild type. Sequences can lack the tags named with a protein.

The chains behind the UniProt entries cited, without tags or fusion partners. Where a name states a change or a piece, a line headed by the entry shows the natural chain unless it says otherwise. A line that says so, or that is headed by a name, gives the form on record, which may keep a tag or linker.
DYK-tagged transmembrane serine protease 13 (TMPRSS13) stably expressed in HEK cells (HEK-T) (Q9BYE2-6, form named): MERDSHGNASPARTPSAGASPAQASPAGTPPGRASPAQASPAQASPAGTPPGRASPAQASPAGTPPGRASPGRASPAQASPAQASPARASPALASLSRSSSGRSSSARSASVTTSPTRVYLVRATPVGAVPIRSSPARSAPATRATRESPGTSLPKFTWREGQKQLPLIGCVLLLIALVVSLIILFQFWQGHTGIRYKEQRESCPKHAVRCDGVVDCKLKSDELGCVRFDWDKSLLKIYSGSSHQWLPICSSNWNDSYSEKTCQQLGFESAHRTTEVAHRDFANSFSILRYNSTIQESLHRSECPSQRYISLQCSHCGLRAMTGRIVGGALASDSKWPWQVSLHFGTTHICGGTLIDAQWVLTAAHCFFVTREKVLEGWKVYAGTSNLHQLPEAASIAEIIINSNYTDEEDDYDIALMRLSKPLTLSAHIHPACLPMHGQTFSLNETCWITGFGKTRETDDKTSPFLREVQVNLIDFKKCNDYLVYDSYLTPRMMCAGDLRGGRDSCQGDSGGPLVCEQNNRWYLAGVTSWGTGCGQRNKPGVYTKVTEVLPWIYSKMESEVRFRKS

T1: Myc-tagged recombinant human IL4I1 from inducible HEK cells (concentrated conditioned PBS) (human) (UniProt Q96RQ9)
T1 sequence: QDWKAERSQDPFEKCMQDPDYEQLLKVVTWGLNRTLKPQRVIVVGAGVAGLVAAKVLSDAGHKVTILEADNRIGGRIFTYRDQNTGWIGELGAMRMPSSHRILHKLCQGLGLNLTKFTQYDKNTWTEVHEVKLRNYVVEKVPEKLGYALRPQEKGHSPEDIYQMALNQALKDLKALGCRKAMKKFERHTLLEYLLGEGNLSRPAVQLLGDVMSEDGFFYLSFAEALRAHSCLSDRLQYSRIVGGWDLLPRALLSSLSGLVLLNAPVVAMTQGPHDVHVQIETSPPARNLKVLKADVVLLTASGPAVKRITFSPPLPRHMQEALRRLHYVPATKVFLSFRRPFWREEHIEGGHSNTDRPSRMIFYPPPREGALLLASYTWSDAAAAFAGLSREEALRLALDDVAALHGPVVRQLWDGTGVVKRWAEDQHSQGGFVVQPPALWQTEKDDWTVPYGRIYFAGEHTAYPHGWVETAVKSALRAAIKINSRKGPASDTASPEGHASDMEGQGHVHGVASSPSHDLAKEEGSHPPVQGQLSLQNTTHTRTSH


Assays:
[1] = biological target: T1, Myc-tagged recombinant human IL4I1 from inducible HEK cells (concentrated conditioned PBS) (human); experiment: co-IP; HEK or HEK-T cells incubated 1 h on ice with concentrated Myc-tagged IL4I1 (10000 U/well), 10 washes, lysed (50 mM Tris HCl pH 7.5, 150 mM NaCl, 2 mM EDTA, 0.5% Triton X100); precipitated with anti-DYK (TMPRSS13) or, in reverse, with anti-IL4I1 antibodies; western blot
[2] = biological target: DYK-tagged transmembrane serine protease 13 (TMPRSS13) stably expressed in HEK cells (HEK-T) (human) (UniProt Q9BYE2); experiment: as above

binding [1]	binding [2]	Molecule
binds	–	DYK-tagged transmembrane serine protease 13 (TMPRSS13) stably expressed in HEK cells (HEK-T) (from UniProt Q9BYE2-6 1-567) (enzyme)
–	binds	Myc-tagged recombinant human IL4I1 from inducible HEK cells (concentrated conditioned PBS) (enzyme, UniProt Q96RQ9-1 22-567) QDWKAERSQDPFEKCMQDPDYEQLLKVVTWGLNRTLKPQRVIVVGAGVAGLVAAKVLSDAGHKVTILEADNRIGGRIFTYRDQNTGWIGELGAMRMPSSHRILHKLCQGLGLNLTKFTQYDKNTWTEVHEVKLRNYVVEKVPEKLGYALRPQEKGHSPEDIYQMALNQALKDLKALGCRKAMKKFERHTLLEYLLGEGNLSRPAVQLLGDVMSEDGFFYLSFAEALRAHSCLSDRLQYSRIVGGWDLLPRALLSSLSGLVLLNAPVVAMTQGPHDVHVQIETSPPARNLKVLKADVVLLTASGPAVKRITFSPPLPRHMQEALRRLHYVPATKVFLSFRRPFWREEHIEGGHSNTDRPSRMIFYPPPREGALLLASYTWSDAAAAFAGLSREEALRLALDDVAALHGPVVRQLWDGTGVVKRWAEDQHSQGGFVVQPPALWQTEKDDWTVPYGRIYFAGEHTAYPHGWVETAVKSALRAAIKINSRKGPASDTASPEGHASDMEGQGHVHGVASSPSHDLAKEEGSHPPVQGQLSLQNTTHTRTSH
